Measured values as given in the supplement of paper PMC12823440, “Inhibitors supercharge kinase turnover through native proteolytic circuits” (Nature, 2025).
Structures can show the parent of a compound that is named as a salt. The list shows a part of the results. Hit calls seldom repeat between salt and free forms of one compound.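 In K562 cells expressing nanoluciferase-fused kinases, luminescence was recorded at 4 h intervals between 2 and 18 h, normalized as percent of control with DMSO at 100% and a positive control at 0%. A significant (2 sigma) signal drop marks a time point as decreased. The authors' rule for a hit is not shown and takes in more than the number of time points.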

Protein sequences, listed by entry. Tags and fused reporters are not part of them. Lines headed by an entry give the natural chain unless they say otherwise; changes in a name come on top.
UniProt Q6PHR2: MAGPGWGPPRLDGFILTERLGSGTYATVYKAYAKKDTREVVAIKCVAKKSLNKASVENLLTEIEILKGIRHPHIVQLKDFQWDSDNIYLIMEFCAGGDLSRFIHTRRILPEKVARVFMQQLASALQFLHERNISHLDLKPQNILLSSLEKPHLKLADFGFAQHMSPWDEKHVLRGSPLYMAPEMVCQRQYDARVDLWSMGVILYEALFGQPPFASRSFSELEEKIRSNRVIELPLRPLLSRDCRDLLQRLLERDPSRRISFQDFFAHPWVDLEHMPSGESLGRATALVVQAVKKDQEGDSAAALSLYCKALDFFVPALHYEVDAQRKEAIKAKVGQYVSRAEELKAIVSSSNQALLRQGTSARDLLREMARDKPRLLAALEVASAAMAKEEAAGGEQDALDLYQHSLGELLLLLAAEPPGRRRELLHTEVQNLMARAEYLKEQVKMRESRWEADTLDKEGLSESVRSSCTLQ
UniProt P07947, whole entry, looked up: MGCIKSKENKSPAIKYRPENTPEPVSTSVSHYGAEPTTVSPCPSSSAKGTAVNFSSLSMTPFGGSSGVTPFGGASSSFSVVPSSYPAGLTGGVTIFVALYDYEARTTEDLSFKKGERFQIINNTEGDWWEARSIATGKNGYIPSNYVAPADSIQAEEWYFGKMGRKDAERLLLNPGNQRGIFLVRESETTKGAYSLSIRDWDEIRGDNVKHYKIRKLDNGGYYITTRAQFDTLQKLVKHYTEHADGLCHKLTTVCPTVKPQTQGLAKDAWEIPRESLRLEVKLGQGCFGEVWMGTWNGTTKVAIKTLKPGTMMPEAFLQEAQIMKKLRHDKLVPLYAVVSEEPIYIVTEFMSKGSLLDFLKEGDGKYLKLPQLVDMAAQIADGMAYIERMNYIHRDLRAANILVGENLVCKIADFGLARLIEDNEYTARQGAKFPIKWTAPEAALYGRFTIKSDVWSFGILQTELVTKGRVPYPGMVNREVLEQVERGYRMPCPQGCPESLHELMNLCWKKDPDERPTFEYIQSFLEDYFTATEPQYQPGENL

What follows are compounds tested against ULK3 (UniProt Q6PHR2) (assay: kinase-Nluc reporter destabilization hit call (1 = scored as downregulated) (binary); higher = compound decreases kinase abundance). Details: K562; 2-18 h.

kinase-Nluc reporter destabilization hit call, inactive:
O=C(O)c1cc(N(Cc2ccccc2O)Cc2cc(O)ccc2O)ccc1O [Lavendustin A] (10 µM) 0
Cc1c(Cl)cccc1S(=O)(=O)Nc1nc(NCCc2ccccc2)nc2c1CN(Cc1ccccc1)CC2 (2.5 µM) 0
CO[C@H]1C[C@@H]2CC[C@@H](C)[C@@](O)(O2)C(=O)C(=O)N2CCCC[C@H]2C(=O)O[C@H]([C@H](C)C[C@@H]2CC[C@@H](OC(=O)C(C)(CO)CO)[C@H](OC)C2)CC(=O)[C@H](C)/C=C(\C)[C@@H](O)[C@@H](OC)C(=O)[C@H](C)C[C@H](C)/C=C/C=C/C=C/1C [Temsirolimus] (2.5 µM) 0
O=C1Nc2ccc(CN3C(=O)CSC3=O)cc2/C1=C/c1cc(CN2CCOCC2)c[nH]1 (10 µM) 0

These compounds were tested against YES1 (UniProt P07947) in the same assay as above. Details: K562; 2-18 h.

kinase-Nluc reporter destabilization hit call, inactive:
N#Cc1cnc2c(Cl)cc(NCc3cn(CCN4CCCCCC4)nn3)cc2c1Nc1ccc(F)c(Cl)c1 [Cot inhibitor-1] (10 µM) 0
Cc1cc(Nc2cc(N)ncn2)c(=O)n2c1C(=O)NC21CCCCC1 [Tomivosertib] (10 µM) 0
CC(Cc1ccc(O)c(O)c1)C(C)Cc1ccc(O)c(O)c1 (stereo not drawn) [Nordihydroguaiaretic acid] (2.5 µM) 0
CNC(=O)c1ccc2c(C(=Nc3cccc(CN(C)C)c3)c3ccccc3)c(O)[nH]c2c1 [MEK inhibitor] (10 µM) 0
COC(=O)[C@H](CCSC)NC(=O)c1ccc(NC[C@@H](N)CS)cc1-c1ccccc1 [FTI-277 (hydrochloride)] (10 µM) 0
C=CC(=O)Nc1ccc(C(=O)Nc2[nH]nc3c2CN(C(=O)N[C@H](CN(C)C)c2ccccc2)C3(C)C)cc1 (10 µM) 0
CCN(CC)CCCC(C)Nc1nc(C)cc(Nc2ccc3nc(C)cc(N)c3c2)n1 (stereo not drawn) (10 µM) 0
COc1cc(F)ccc1-c1ncnc(Nc2cccc(C[S@](C)(=N)=O)c2)n1 [Atuveciclib] (2.5 µM) 0
O=C(c1cccc(Cl)c1F)N1CCN(Cc2cccc(Nc3nccs3)n2)CC1 (2.5 µM) 0
N#Cc1ccc(-c2cnc3ccc(-c4ccc(C(=O)N5CCOCC5)cc4)cn23)cc1 (10 µM) 0
Cc1ccc(C(=O)NC2CC2)cc1-n1ncc(C(=O)c2cccc(C#N)c2)c1N [Acumapimod] (10 µM) 0
N#Cc1ccc(-c2cnc3[nH]cc(NC(=O)c4cccnc4)c3c2)cc1 (10 µM) 0
CC1(N)CCN(c2cccnc2NC(=O)c2nc(-c3ncccc3C(F)(F)F)cnc2N)CC1 [Darovasertib] (10 µM) 0
COc1cc(N2CCC(N3CCN(C)CC3)CC2)ccc1Nc1ncc(Cl)c(-c2c[nH]c3ccccc23)n1 (2.5 µM) 0
CN1CCN(c2ccc(Nc3ncc4cc(C#N)c(=O)n(C5CCCC5)c4n3)cc2)CC1 (10 µM) 0
CO[C@H]1CC[C@H](N2C(=O)CNc3ncc(-c4ccc(C(C)(C)O)nc4)nc32)CC1 (2.5 µM) 0
Cc1c(C(=O)Nc2ccc(Oc3ccnc4[nH]cc(-c5ccccc5)c34)c(F)c2)c(=O)n(-c2ccc(F)cc2)n1C (10 µM) 0
COc1ccc(Nc2ncc(C(F)(F)F)c(NC3CC3)n2)cc1OC (10 µM) 0
C[C@@H]1O[C@@H](Oc2cc(O)c3c(=O)c(O[C@@H]4O[C@@H](C)[C@H](O)[C@@H](O)[C@H]4O)c(-c4ccc(O)cc4)oc3c2)[C@H](O)[C@H](O)[C@H]1O [Kaempferitrin] (10 µM) 0
COC(=O)Nc1ccc(-c2nc(N3CCOCC3)c3cnn(C4CCN(Cc5cccnc5)CC4)c3n2)cc1 (10 µM) 0
CC(C)Oc1ccc(F)c(-c2cnc(N)c(C(=O)Nc3cnccc3N3CCC[C@@H](C(=O)O)C3)n2)c1 (2 µM) 0
O=Nc1c(-c2c(O)[nH]c3cc(Br)ccc23)[nH]c2ccccc12 [GSK 3 Inhibitor IX] (2.5 µM) 0
NCC1CCC(CNc2nc(NCc3ccccc3OC(F)(F)F)ncc2[N+](=O)[O-])CC1 (stereo not drawn) [PKC-theta inhibitor] (10 µM) 0
N[C@@H]1CCCN(c2c(/C=C3\SC(=O)NC3=O)cccc2-c2ccccc2)C1 (10 µM) 0

A run of entries from the list above, for reference:
kinase-Nluc reporter destabilization hit call, inactive:
COC(=O)[C@H](CCSC)NC(=O)c1ccc(NC[C@@H](N)CS)cc1-c1ccccc1 [FTI-277 (hydrochloride)] (10 µM) 0
C=CC(=O)Nc1ccc(C(=O)Nc2[nH]nc3c2CN(C(=O)N[C@H](CN(C)C)c2ccccc2)C3(C)C)cc1 (10 µM) 0
